The inconclusive results got no clear call from the source; some entries with a clear call stand among them for comparison. Entries that show only a call come without a potency. A potency beside an inconclusive call is a rough fit, not a confirmed value. Activity calls are given as the source filed them. The call rests on the fitted dose curve.
Assay: p53 small molecule agonists, cell-based qHTS assay with rat liver microsomes: qHTS cell viability counter screen (AID 1963580); further: nearly all actives have a fitted effect of over 45% in size
Details: p53RE-bla HCT-116 + rat microsomes, ATP viability, 16 h; series mostly up to 66 µM
Method in brief: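 Luminescent ATP readout (CellTiter-Glo, 30 min at room temperature) reports viability of p53RE-bla HCT-116 cells after 16 h at 37 C with test compounds under metabolic activation by rat liver microsomes and NADPH at 0.5 mg/mL final each.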
For `NC(=O)c1cccnc1`, the Potency was inconclusive: 0.4 µM [cytotoxic, single point]. For `Cc1ccccc1Br`, the Potency was “inactive”. With `CCCCCCCCC(CO)CCCCCC` (centres undefined) the Potency was “inactive”. For `CCOC(=O)Oc1ccc(CCNC(=O)[C@H](CCSC)NC(C)=O)cc1OC(=O)OCC`, the Potency was “inactive”. With `CCCCCCCCCCCCCCCCCl` the Potency was inconclusive: 0.511 µM [cytotoxic, single point]. In the case of `C=CCCC`, the Potency is reported as “inactive”. With `Cc1ccc(S(=O)(=O)NC(=O)NN2CCCCCC2)cc1` the Potency was inconclusive: 1.82 µM [cytotoxic, single point]. In the case of `COc1nc(N)nc2c1ncn2[C@@H]1O[C@H](CO)[C@@H](O)[C@@H]1O`, the Potency is reported as “inactive”. For `CCc1ccc(CC)cc1`, the Potency was inconclusive: 51.6 µM [cytotoxic, single point]. With `NC(=O)c1cc[n+](CC2=C(C(=O)[O-])N3C(=O)[C@@H](NC(=O)Cc4cccs4)[C@H]3SC2)cc1` the Potency was “inactive”. For `O=C(O)c1cc(C(=O)O)cc(S(=O)(=O)O)c1`, the Potency was “inactive”. For `CC(=O)C1=C(C)[C@@H]2C[C@@]3(C1)[C@H](C)CC[C@H]3C2(C)C`, the Potency was inconclusive: 0.537 µM [cytotoxic, single point]. With `CCN[C@@H]1C[C@H](N)[C@@H](OC2OC(CN)=CCC2N)[C@H](O)[C@H]1O[C@H]1OC[C@](C)(O)[C@H](NC)[C@H]1O` (some centres undefined) the activity change, negative = cytotoxicity was inactive: -10.4% [at 0.249 µM]. In the case of `CC(C)(C)N`, the Potency is reported as inconclusive: 45.8 µM [rising, partial curve]. With `O=C(NN1CCCC1)NS(=O)(=O)c1ccc(Cl)cc1` the Potency was “inactive”. With `CCCCOC(=O)[C@H](C)O` the Potency was “inactive”. With `O=C(/C=C/c1ccccc1)OCCCc1ccccc1` the Potency was inconclusive: 18.2 µM [rising, single point]. For `CCCC/C=C\CCCCCCCCCC=O`, the Potency was “inactive”. With `CCCCCCCCCCOS(=O)(=O)O` the Potency was inconclusive: 45.6 µM [rising, partial curve, poor fit]. For `C=CCCCCCCCCCCC`, the activity change, negative = cytotoxicity was inactive: -1.27% [at 5.99 µM]. With `Cn1c([N+](=O)[O-])cnc1COC(N)=O` the Potency was inconclusive: 0.793 µM [cytotoxic, single point]. For `NC(CCC(=O)O)C(=O)O` (centres undefined), the Potency was “inactive”. In the case of `C/C=C(\C)C(C)=O`, the Potency is reported as “inactive”. In the case of `C=C(C)C(=O)OC`, the Potency is reported as “inactive”. With `c1cnc2c(n1)CCCC2` the Potency was inconclusive: 18.2 µM [rising, single point]. For `Oc1cc(O)c(Cl)cc1Cl`, the Potency was “inactive”. In the case of `CN1CCC(=C2c3ccccc3CCc3cccnc32)CC1`, the Potency is reported as “inactive”. With `COc1nc(C)nc(N)n1` the Potency was inconclusive: 51.3 µM [rising, single point]. In the case of `Cc1ccc(N)c([N+](=O)[O-])c1`, the Potency is reported as “inactive”. With `N#CCc1cccc(C(F)(F)F)c1` the Potency was active: 45.8 µM. With `CC/C=C\CCOC(C)=O` the Potency was inconclusive: 45.8 µM [rising, single point]. In the case of `C=C(C)[C@H]1CC=C(C)CC1`, the Potency is reported as “inactive”. For `c1ccc(-c2ccc(-c3ccccc3)cc2)cc1`, the activity change, negative = cytotoxicity was inactive: -3.67% [at 13.5 µM]. For `Oc1cc(O)c2c(c1)O[C@H](c1ccc(O)c(O)c1)[C@H](O)C2`, the Potency was “inactive”. In the case of `CCCN(CCC)C(=O)C(CCC(=O)O)NC(=O)c1ccccc1` (centres undefined), the Potency is reported as “inactive”. For `c1ccc(CN(Cc2ccccc2)Cc2ccccc2)cc1`, the Potency was “inactive”. With `Clc1ccnc(Cl)n1` the Potency was inconclusive: 52.1 µM [cytotoxic, single point]. For `C=CCCCCCCCCC(=O)OCC`, the Potency was inconclusive: 51.3 µM [rising, partial curve, poor fit]. In the case of `CCN(CC)CCNC(=O)c1cc(S(C)(=O)=O)ccc1OC`, the Potency is reported as “inactive”.

From PubChem BioAssay (Tox21)
Potency means the concentration at half of the fitted maximal effect.
